Measurements reported in publication PMC3827329.
Results are given in words; binding and its absence hold for the method and conditions named. In cells and extracts the contact can be indirect. Some entries that bind do so weakly or less than the wild type.

Protein sequences, listed by entry. Tags and fused reporters are not part of them.
UniProt P62136: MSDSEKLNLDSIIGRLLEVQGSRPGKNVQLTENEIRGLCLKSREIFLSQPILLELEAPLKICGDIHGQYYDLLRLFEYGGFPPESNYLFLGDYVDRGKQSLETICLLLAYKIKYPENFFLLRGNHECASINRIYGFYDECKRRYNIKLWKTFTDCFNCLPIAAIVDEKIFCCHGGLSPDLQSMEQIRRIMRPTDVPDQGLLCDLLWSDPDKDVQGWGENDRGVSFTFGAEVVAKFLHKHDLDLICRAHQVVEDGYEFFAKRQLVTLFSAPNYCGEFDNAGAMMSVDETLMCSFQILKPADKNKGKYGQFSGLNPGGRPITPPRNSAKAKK
UniProt P31751: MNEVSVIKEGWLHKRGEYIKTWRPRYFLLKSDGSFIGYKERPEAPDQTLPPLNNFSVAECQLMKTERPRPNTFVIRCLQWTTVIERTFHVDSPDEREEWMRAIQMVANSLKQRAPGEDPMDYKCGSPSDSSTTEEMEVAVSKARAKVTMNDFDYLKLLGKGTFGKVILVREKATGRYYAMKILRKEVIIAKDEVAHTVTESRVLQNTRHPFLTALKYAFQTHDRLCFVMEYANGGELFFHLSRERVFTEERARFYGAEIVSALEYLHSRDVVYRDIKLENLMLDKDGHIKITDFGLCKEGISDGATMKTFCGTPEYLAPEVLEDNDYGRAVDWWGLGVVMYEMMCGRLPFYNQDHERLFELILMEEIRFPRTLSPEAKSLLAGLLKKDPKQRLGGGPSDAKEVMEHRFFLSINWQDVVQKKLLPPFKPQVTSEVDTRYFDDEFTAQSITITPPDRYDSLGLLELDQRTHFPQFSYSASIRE
UniProt Q9Y243: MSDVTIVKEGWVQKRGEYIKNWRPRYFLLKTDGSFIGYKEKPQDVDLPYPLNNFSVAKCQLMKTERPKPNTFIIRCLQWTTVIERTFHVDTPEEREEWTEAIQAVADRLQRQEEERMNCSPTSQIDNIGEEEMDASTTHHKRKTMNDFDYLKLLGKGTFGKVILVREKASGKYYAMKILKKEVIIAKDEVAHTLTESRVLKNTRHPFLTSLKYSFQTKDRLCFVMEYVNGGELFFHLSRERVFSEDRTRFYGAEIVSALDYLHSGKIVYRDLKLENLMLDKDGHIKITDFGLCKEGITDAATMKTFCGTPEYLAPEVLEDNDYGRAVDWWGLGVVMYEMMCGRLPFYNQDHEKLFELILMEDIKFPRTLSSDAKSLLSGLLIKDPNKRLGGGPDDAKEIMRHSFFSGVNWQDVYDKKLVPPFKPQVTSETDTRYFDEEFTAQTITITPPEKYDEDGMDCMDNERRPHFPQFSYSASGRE
UniProt P31749: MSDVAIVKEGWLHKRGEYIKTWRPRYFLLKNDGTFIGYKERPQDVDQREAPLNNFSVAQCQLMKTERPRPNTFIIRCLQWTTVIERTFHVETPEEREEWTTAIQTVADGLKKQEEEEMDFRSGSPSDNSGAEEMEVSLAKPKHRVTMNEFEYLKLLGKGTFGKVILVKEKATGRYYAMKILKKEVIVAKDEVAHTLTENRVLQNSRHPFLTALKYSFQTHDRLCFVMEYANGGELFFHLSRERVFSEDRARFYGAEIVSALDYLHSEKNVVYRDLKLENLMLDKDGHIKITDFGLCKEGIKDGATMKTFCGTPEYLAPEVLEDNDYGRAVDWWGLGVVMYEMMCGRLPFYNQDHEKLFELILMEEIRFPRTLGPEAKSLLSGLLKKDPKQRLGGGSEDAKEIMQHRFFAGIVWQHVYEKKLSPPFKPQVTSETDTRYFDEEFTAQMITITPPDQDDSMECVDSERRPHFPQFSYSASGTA

What was measured:
Test in all cases: pull-down; GST-tagged bait and His-Xpress-KCTD20 coexpressed in COS7 cells; lysates (20 mM HEPES pH 7.5, 150 mM NaCl, 1 mM DTT, 1 mM EDTA, 0.5% Triton X-100) precleared with sepharose 4B, pulled down with glutathione beads, washed five times; immunoblot with anti-Xpress and anti-GST
[1] = target: GST-tagged catalytic subunit of PP1A (UniProt P62136)
GST-Akt2 = GST-Akt2 (UniProt P31751)
GST-Akt3 = GST-Akt3 (UniProt Q9Y243)
GST-Akt1 = GST-Akt1 (UniProt P31749)

Measured: binding

His-Xpress-KCTD20 (potassium channel tetramerization protein domain containing 20) (from UniProt Q7Z5Y7-1 1-419)
binds: all assays above
